Drawing on PubChem BioAssay AID248 (DTP/NCI, 2004), this text covers survivor count and T/C for 33 compounds.

The list does not hold the whole screen: it gathers tests that were run many times, whatever their T/C, doses with no T/C, and many T/C values between a quarter and a half above the control. Further doses and runs are listed elsewhere. T/C: endpoint of the treated group in % of that of the vehicle group. Some entries give survivors of the animals treated and no T/C: the source files T/C as zero there, which appears to mark a toxic dose or a test without result, not a measured value. Some doses without a T/C left all or most animals alive at the check, yet need not have been tolerated: the source hardly ever lists a survival T/C far under the control, and the zero likely stands for such cases as well. Survivors were counted at the toxicity check, usually on the fifth day, unless a day is given; later deaths do not show. Schedules are NCI's codes, read here as Q, the interval in days (D) or hours (H), X, the number of doses. For survival time, this PubChem deposit counts one and a half times the control or more as active, and values a quarter to a half above the control carry no call in these data; other NCI protocols may use other cut-offs.

The test has as its system L1210 leukemia ip in BDF1 mice, survival T/C. The test can be described thus: NCI In Vivo Anticancer Drug Screen. Data for tumor model L1210 Leukemia (intraperitoneal) in B6D2F1 (BDF1) mice. Particulars: T/C endpoint: mean survival time, higher T/C = longer survival.
Where [1] appears, read: dose: 100.0 mg/kg/injection, schedule: Q01DX009 (ip), vehicle: Klucel (hydroxypropylcellulose) (HPC).
Setting [2] is: dose: 200.0 mg/kg/injection, schedule: Q01DX009 (ip), vehicle: Klucel (hydroxypropylcellulose) (HPC).
[3] abbreviates: dose: 200.0 mg/kg/injection, schedule: Q04DX003 (ip), vehicle: Klucel (hydroxypropylcellulose) (HPC).
Setting [4] is: dose: 400.0 mg/kg/injection, schedule: Q04DX003 (ip), vehicle: Klucel (hydroxypropylcellulose) (HPC).
Setting [5] is: dose: 100.0 mg/kg/injection, schedule: Q04DX002 (ip), vehicle: saline.
The mark [6] stands for this setting: dose: 200.0 mg/kg/injection, schedule: Q04DX002 (ip), vehicle: saline.
Where [7] appears, read: dose: 400.0 mg/kg/injection, schedule: Q01DX001 (ip), vehicle: saline.
[8] abbreviates: dose: 300.0 mg/kg/injection, schedule: Q01DX001 (ip), vehicle: other.
Setting [9] is: dose: 100.0 mg/kg/injection, schedule: Q01DX009 (ip), vehicle: saline.
Where [10] appears, read: dose: 200.0 mg/kg/injection, schedule: Q04DX003 (ip), vehicle: saline.
[11] abbreviates: dose: 400.0 mg/kg/injection, schedule: Q04DX003 (ip), vehicle: saline.
Setting [12] is: dose: 400.0 mg/kg/injection, schedule: Q04DX003 (ip), vehicle: saline with Tween-80.
Where [13] appears, read: dose: 200.0 mg/kg/injection, schedule: Q04DX003 (ip), vehicle: saline with Tween-80.
[14] abbreviates: dose: 300.0 mg/kg/injection, schedule: Q01DX001 (ip), vehicle: saline.
Setting [15] is: dose: 100.0 mg/kg/injection, schedule: Q04DX003 (ip), vehicle: Klucel (hydroxypropylcellulose) (HPC).

As for `O=[N+]([O-])/C=C\c1cc(Cl)c(/C=C/[N+](=O)[O-])c(Cl)c1Cl`, the survivor count reads like this: (dose: 5.0 mg/kg/injection, schedule: Q01DX009 (ip), vehicle: saline) 6 of 6; (dose: 5.0 mg/kg/injection, schedule: Q04DX003 (ip), vehicle: acetone) 6 of 6; (dose: 10.0 mg/kg/injection, schedule: Q01DX009 (ip), vehicle: saline) 6 of 6; (dose: 40.0 mg/kg/injection, schedule: Q01DX001 (ip), vehicle: acetone) 2 of 6.
On to `CC/C(=C\c1ccccc1)[N+](=O)[O-]`, for which the survivor count under setting [1] is listed as 3 of 6, the survivor count under setting [2] is 0 of 6, the survivor count under setting [3] is listed as 5 of 6 and the survivor count under setting [4] is recorded as 0 of 6.
In the case of `NCC1CCNCC1`, under setting [5], the T/C is 128 % of control. Moreover, the survivor count under setting [6] is given as 3 of 3.
As for `C=C(C)CCc1ccccc1`, under setting [7], the survivor count was 1 of 4.
Take `O=[N+]([O-])c1cc(F)c(F)cc1F`: the survivor count under setting [4] is on record as 0 of 6.
For `O=S(=O)(O)F`, under setting [7], the survivor count is given as 2 of 6.
Regarding `CNC(=O)c1nc(C)c(C)[nH]c1=O`, for the setting “dose: 400.0 mg/kg/injection, schedule: Q04DX003 (ip), vehicle: water”, the survivor count was 0 of 6.
Take `CCN(CC)CN(CC)CC`: the survivor count (dose: 200.0 mg/kg/injection, schedule: Q04DX002 (ip), vehicle: saline with Tween-80) is on record as 3 of 3 and the survivor count (dose: 400.0 mg/kg/injection, schedule: Q04DX002 (ip), vehicle: saline with Tween-80) is reported as 0 of 3.
For the compound `CCNCc1cc(Nc2cc(C)nc(/N=C(\N)Nc3ccc(Cl)c(Cl)c3)n2)ccc1OC`, the survivor count is on record as 2 of 6 (dose: 150.0 mg/kg/injection, schedule: Q01DX001 (ip), vehicle: other); 3 of 6 (dose: 150.0 mg/kg/injection, schedule: Q04DX003 (ip), vehicle: Klucel (hydroxypropylcellulose) (HPC)); 2 of 6 (dose: 225.0 mg/kg/injection, schedule: Q04DX003 (ip), vehicle: Klucel (hydroxypropylcellulose) (HPC)); 0 of 6 under setting [8]; 1 of 6 (dose: 340.0 mg/kg/injection, schedule: Q04DX003 (ip), vehicle: Klucel (hydroxypropylcellulose) (HPC)).
Regarding `COc1cc2c(cc1OC)C(CCN1C(=O)c3ccccc3C1=O)=NCC2`, the survivor count under setting [9] is 6 of 6, the survivor count under setting [10] is 0 of 6 and the survivor count under setting [11] is given as 0 of 6.
For `CC(C)OCc1c(N)nc(=S)[nH]c1C(=O)O`, the survivor count under setting [9] was 2 of 6; the survivor count (dose: 200.0 mg/kg/injection, schedule: Q01DX009 (ip), vehicle: saline) is given as 0 of 6; the survivor count under setting [10] is 0 of 6; the survivor count under setting [11] is given as 0 of 6.
In the case of `Cc1ccc(NC(=O)CS)cc1`, under setting [12], the survivor count is 0 of 6.
Consider `CCCC#CCCCN1CCC2(CC1)C(=O)NCN2c1ccccc1`, for which the survivor count by setting is: under setting [3], 0 of 6; under setting [4], 0 of 6.
On to `N=C(N)SCc1ccccc1Cl`, for which, under “dose: 12.5 mg/kg/injection, schedule: Q04DX002 (ip), vehicle: saline”, the T/C was 144 % of control. Also, the survivor count is 1 of 3 under setting [5]; 0 of 3 under setting [6]; 0 of 3 (dose: 400.0 mg/kg/injection, schedule: Q04DX002 (ip), vehicle: saline).
Take `CN=Cc1ccccc1`: the survivor count under setting [13] was 6 of 6.
Take `O=C(COc1ccccc1)NC(=S)Nc1ccc(F)c([N+](=O)[O-])c1`: the survivor count (dose: 400.0 mg/kg/injection, schedule: Q01DX009 (ip), vehicle: saline with Tween-80) is reported as 3 of 3.
In the case of `Cc1ncc(CO)c(C2NOCc3ccc(Cl)cc32)c1O` (stereo not given), the survivor count (dose: 200.0 mg/kg/injection, schedule: Q04DX003 (ip), vehicle: acetone) is listed as 5 of 6 and the survivor count (dose: 400.0 mg/kg/injection, schedule: Q04DX003 (ip), vehicle: acetone) is reported as 0 of 6.
As to `CCC(=O)CC1CCCC(CC(=O)CC)N1` (stereo not given), under setting [14], the survivor count was 0 of 6.
Turning to `CCCCCCCCCCCCCCCOc1cc(C=O)ccc1OC`, under “dose: 400.0 mg/kg/injection, schedule: Q01DX001 (ip), vehicle: Klucel (hydroxypropylcellulose) (HPC)”, the survivor count was 6 of 6.
With `C=CCCC1CC(C(C)C)CC2(C1)OCCO2` (stereo not given), where the note is “dose: 200.0 mg/kg/injection, schedule: Q01DX009 (ip), vehicle: saline with Tween-80”, the survivor count is 3 of 3.
Turning to `NC(=O)OCCCc1ccccc1`, the survivor count is on record as 4 of 4 under setting [15] and 2 of 4 under setting [4].
For the compound `O=[N+]([O-])c1ccc(C(O)C=C(C(F)(F)F)C(F)(F)F)cc1` (stereo not given), the survivor count is 6 of 6 (dose: 50.0 mg/kg/injection, schedule: Q01DX009 (ip), vehicle: Klucel (hydroxypropylcellulose) (HPC)); 5 of 6 under setting [1]; 1 of 6 under setting [2]; 1 of 6 (dose: 400.0 mg/kg/injection, schedule: Q01DX009 (ip), vehicle: Klucel (hydroxypropylcellulose) (HPC)).
For the compound `C[N+](C)(C)CC#N`, the survivor count under setting [11] is listed as 3 of 6.
Regarding `COc1cc2c(c(OC)c1OC)CCNC2`, the survivor count (dose: 80.0 mg/kg/injection, schedule: Q01DX001 (ip), vehicle: saline) is reported as 1 of 6.
Consider `O=C1c2ccccc2C(=O)N1Nc1ccccc1`, for which the survivor count is, setting by setting: (dose: 50.0 mg/kg/injection, schedule: Q01DX001 (ip), vehicle: acid diluted with saline) 0 of 4; (dose: 100.0 mg/kg/injection, schedule: Q01DX001 (ip), vehicle: acid diluted with saline) 0 of 4; (dose: 200.0 mg/kg/injection, schedule: Q01DX001 (ip), vehicle: acid diluted with saline) 0 of 4; (dose: 400.0 mg/kg/injection, schedule: Q01DX001 (ip), vehicle: acid diluted with saline) 0 of 4.
In the case of `CC(C)NP(=O)(NC(C)C)OC1CC(C)(C)N(O)C(C)(C)C1`, the survivor count was 1 of 3 (dose: 100.0 mg/kg/injection, schedule: Q01DX001 (ip), vehicle: water) and 0 of 3 (dose: 200.0 mg/kg/injection, schedule: Q01DX001 (ip), vehicle: water).
On to `Oc1c(Cl)cc(N=Cc2ccc(N(CCCCl)CCCCl)cc2Cl)cc1Cl`, for which the survivor count by setting is: (dose: 50.0 mg/kg/injection, schedule: Q04DX003 (ip), vehicle: Klucel (hydroxypropylcellulose) (HPC)) 6 of 6; under setting [15], 6 of 6; under setting [3], 6 of 6; under setting [4], 6 of 6.
In the case of `S=C1N/N=C/NN/C=N/N1`, the survivor count runs as follows: (dose: 40.0 mg/kg/injection, schedule: Q01DX001 (ip), vehicle: saline) 0 of 6; (dose: 75.0 mg/kg/injection, schedule: Q01DX001 (ip), vehicle: saline) 0 of 6; (dose: 150.0 mg/kg/injection, schedule: Q01DX001 (ip), vehicle: saline) 0 of 6; under setting [14], 0 of 6.
Take `C=CCN1C(=O)C2C3C=CC(C3)C2C1=O` (stereo not given): for the setting “dose: 12.0 mg/kg/injection, schedule: Q04DX002 (ip), vehicle: Klucel (hydroxypropylcellulose) (HPC)”, the T/C is 125 % of control.
With `CCOC(=O)C(=O)Nc1cc(C)ccc1C`, the survivor count under setting [12] is given as 6 of 6.
For `c1ccc(COC2CN3CCC2CC3)cc1` (stereo not given), the survivor count is given as 2 of 6 under setting [13] and 0 of 6 under setting [12].
For `CCCN(CCC)CC(C)O` (stereo not given), the survivor count under setting [11] is given as 0 of 6.
Consider `CC1(O)CC(=O)C2C3C=CC(C3)C21` (stereo not given), for which, under setting [8], the survivor count is 1 of 6.
